This passage reports binding results from publication PMC2707011.

Sequences of proteins named here, by UniProt entry; tags and fusion partners are left off. Residues count along the entry.
UniProt O00602, residues 30-326: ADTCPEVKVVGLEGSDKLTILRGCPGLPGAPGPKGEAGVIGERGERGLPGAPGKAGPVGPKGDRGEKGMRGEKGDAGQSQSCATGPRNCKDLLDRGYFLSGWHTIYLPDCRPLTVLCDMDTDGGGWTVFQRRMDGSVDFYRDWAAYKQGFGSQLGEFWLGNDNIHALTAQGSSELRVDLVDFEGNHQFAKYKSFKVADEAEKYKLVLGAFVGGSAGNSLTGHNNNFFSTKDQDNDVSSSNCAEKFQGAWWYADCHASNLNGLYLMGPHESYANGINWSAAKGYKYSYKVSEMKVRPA

These are yes or no findings as the source states them, for the method shown. Some results given as binding are weak or reduced against the parent protein; the word gives no strength.

The target of assay [1] is T1, hTectonin (human) (UniProt Q7Z6L1).
T1 sequence: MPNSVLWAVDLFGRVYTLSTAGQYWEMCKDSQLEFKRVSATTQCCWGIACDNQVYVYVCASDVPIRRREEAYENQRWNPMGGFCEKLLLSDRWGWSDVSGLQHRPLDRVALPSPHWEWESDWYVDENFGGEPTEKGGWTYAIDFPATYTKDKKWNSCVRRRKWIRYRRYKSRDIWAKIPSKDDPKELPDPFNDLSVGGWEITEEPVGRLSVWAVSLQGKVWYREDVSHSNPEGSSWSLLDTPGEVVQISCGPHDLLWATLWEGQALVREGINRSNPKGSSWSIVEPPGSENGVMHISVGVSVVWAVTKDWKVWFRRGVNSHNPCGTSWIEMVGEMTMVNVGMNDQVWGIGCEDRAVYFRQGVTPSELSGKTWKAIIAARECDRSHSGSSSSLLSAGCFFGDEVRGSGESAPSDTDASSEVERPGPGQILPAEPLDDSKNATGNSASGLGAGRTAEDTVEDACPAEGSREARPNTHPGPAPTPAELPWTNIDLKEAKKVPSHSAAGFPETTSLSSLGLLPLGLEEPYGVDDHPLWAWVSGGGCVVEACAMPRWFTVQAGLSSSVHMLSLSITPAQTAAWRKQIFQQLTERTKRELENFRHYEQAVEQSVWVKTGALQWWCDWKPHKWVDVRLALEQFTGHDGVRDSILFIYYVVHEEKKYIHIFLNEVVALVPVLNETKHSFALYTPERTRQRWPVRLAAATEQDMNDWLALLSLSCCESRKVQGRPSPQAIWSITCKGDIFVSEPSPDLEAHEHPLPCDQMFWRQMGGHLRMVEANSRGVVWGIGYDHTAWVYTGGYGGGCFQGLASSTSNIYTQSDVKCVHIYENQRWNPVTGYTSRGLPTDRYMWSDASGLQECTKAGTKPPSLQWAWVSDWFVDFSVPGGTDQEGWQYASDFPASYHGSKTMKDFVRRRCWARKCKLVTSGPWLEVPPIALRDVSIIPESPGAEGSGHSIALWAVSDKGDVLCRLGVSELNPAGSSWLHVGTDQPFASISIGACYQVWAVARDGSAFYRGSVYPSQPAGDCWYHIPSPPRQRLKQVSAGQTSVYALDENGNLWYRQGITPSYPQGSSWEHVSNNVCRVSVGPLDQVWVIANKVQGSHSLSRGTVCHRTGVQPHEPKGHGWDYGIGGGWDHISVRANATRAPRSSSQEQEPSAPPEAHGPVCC
Briefly: two-hybrid; S. cerevisiae AH109; bait fused to the Gal4 DNA-binding domain (pGBKT7), prey to the Gal4 activation domain (pGADT7-Rec); selection on SC-Trp-Leu, then growth on QDO agar at 30°C.

The target in assay [2] is T2, hTectonin (human), Q7Z6L1.
T2 chain: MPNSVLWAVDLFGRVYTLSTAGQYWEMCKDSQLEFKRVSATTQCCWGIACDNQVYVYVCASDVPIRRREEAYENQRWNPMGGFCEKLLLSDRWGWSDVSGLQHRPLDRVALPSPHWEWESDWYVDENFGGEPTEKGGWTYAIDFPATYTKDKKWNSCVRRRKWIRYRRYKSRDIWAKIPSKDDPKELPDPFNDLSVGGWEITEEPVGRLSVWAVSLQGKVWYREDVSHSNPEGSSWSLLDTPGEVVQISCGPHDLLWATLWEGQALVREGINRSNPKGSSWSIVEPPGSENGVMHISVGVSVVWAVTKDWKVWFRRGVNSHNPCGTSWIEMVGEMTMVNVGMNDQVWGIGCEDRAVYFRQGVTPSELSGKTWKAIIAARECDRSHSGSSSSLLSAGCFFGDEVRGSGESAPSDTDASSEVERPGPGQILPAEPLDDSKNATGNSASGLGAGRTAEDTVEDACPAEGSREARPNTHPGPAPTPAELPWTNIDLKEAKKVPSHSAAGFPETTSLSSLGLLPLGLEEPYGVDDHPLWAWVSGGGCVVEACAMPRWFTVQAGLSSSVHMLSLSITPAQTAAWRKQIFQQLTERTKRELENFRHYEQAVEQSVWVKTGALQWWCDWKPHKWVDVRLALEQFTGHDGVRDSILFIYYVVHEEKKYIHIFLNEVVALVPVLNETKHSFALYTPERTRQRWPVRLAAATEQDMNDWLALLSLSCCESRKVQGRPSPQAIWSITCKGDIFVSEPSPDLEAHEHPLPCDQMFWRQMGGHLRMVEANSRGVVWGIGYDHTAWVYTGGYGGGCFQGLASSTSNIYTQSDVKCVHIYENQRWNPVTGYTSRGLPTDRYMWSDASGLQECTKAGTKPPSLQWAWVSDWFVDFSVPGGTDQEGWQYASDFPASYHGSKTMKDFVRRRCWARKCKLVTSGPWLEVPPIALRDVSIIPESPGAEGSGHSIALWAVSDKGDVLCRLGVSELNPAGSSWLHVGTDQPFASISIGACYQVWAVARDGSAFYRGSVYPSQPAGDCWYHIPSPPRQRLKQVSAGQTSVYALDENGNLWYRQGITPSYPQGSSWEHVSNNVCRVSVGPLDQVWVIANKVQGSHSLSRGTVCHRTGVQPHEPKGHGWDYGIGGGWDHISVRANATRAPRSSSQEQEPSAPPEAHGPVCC
Described as above. To be noted: remark: other sources report otherwise.

Regarding M-ficolin (from UniProt O00602 30-326), in assay [1], the binding result is reported as “binds”.

B1: hTectonin, Q7Z6L1 1-1165 (protein)
chain: MPNSVLWAVDLFGRVYTLSTAGQYWEMCKDSQLEFKRVSATTQCCWGIACDNQVYVYVCASDVPIRRREEAYENQRWNPMGGFCEKLLLSDRWGWSDVSGLQHRPLDRVALPSPHWEWESDWYVDENFGGEPTEKGGWTYAIDFPATYTKDKKWNSCVRRRKWIRYRRYKSRDIWAKIPSKDDPKELPDPFNDLSVGGWEITEEPVGRLSVWAVSLQGKVWYREDVSHSNPEGSSWSLLDTPGEVVQISCGPHDLLWATLWEGQALVREGINRSNPKGSSWSIVEPPGSENGVMHISVGVSVVWAVTKDWKVWFRRGVNSHNPCGTSWIEMVGEMTMVNVGMNDQVWGIGCEDRAVYFRQGVTPSELSGKTWKAIIAARECDRSHSGSSSSLLSAGCFFGDEVRGSGESAPSDTDASSEVERPGPGQILPAEPLDDSKNATGNSASGLGAGRTAEDTVEDACPAEGSREARPNTHPGPAPTPAELPWTNIDLKEAKKVPSHSAAGFPETTSLSSLGLLPLGLEEPYGVDDHPLWAWVSGGGCVVEACAMPRWFTVQAGLSSSVHMLSLSITPAQTAAWRKQIFQQLTERTKRELENFRHYEQAVEQSVWVKTGALQWWCDWKPHKWVDVRLALEQFTGHDGVRDSILFIYYVVHEEKKYIHIFLNEVVALVPVLNETKHSFALYTPERTRQRWPVRLAAATEQDMNDWLALLSLSCCESRKVQGRPSPQAIWSITCKGDIFVSEPSPDLEAHEHPLPCDQMFWRQMGGHLRMVEANSRGVVWGIGYDHTAWVYTGGYGGGCFQGLASSTSNIYTQSDVKCVHIYENQRWNPVTGYTSRGLPTDRYMWSDASGLQECTKAGTKPPSLQWAWVSDWFVDFSVPGGTDQEGWQYASDFPASYHGSKTMKDFVRRRCWARKCKLVTSGPWLEVPPIALRDVSIIPESPGAEGSGHSIALWAVSDKGDVLCRLGVSELNPAGSSWLHVGTDQPFASISIGACYQVWAVARDGSAFYRGSVYPSQPAGDCWYHIPSPPRQRLKQVSAGQTSVYALDENGNLWYRQGITPSYPQGSSWEHVSNNVCRVSVGPLDQVWVIANKVQGSHSLSRGTVCHRTGVQPHEPKGHGWDYGIGGGWDHISVRANATRAPRSSSQEQEPSAPPEAHGPVCC
As to B1, the binding result in assay [2] is “binds”.
